Data published in patent US20170319655A1.
These are yes or no findings as the source states them, for the method shown. Some binding calls cover weakened binding; strength is not graded here. Where a sequence is shown, tags or fusion partners need not be part of it.

Chains of the proteins cited; added tags and fusions are not shown. Lines headed by an entry give the natural chain unless they say otherwise; changes in a name come on top.
UniProt P15941: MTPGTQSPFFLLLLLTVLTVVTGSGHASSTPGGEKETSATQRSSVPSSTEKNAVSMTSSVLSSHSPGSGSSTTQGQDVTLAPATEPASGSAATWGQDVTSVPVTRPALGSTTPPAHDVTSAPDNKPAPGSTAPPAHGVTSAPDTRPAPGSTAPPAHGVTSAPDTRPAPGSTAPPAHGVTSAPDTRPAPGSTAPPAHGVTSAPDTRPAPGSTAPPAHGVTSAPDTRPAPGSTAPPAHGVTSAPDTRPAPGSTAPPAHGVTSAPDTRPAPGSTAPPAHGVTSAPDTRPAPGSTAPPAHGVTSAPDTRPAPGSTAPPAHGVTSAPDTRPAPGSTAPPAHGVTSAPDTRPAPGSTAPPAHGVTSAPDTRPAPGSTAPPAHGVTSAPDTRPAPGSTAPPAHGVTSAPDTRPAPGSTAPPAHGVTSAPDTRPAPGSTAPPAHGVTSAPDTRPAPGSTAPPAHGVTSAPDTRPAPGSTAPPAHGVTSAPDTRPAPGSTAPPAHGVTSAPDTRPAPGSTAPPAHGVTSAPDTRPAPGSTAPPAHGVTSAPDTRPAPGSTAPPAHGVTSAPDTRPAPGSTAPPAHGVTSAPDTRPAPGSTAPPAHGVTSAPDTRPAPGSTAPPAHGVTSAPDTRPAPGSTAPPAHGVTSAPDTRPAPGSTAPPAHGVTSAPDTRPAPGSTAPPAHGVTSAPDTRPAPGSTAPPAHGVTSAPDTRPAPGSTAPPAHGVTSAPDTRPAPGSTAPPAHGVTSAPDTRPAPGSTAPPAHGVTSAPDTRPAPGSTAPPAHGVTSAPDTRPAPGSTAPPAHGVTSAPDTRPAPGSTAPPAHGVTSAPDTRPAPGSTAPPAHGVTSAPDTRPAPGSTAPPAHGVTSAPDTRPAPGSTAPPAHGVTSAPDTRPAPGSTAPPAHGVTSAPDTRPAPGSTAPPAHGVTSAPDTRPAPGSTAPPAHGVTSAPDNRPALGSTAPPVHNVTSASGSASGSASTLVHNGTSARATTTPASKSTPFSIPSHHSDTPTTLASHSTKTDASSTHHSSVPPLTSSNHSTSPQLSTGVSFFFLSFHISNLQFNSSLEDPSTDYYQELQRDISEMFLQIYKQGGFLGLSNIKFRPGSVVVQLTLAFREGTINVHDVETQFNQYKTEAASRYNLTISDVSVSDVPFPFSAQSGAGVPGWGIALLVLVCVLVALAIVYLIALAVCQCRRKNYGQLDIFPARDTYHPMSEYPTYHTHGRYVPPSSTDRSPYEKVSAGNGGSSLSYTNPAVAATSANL

Key:
[1] = target: MUC1-ED on Ad-NEU1-infected airway epithelial cells (A549 cells; SAECs), desialylated by overexpressed NEU1 (human) (UniProt P15941); assay: Alexa Fluor 594-flagellin binding to A549 cells, Scatchard transformation
[2] = target: MUC1-ED on Ad-GFP-infected airway epithelial cells (A549 cells; SAECs) (human) (UniProt P15941); assay: Alexa Fluor 594-flagellin binding to A549 cells, fluorometry
[3] = target: MUC1-ED on Ad-NEU1-infected airway epithelial cells (A549 cells; SAECs), desialylated by overexpressed NEU1 (human) (UniProt P15941); assay: as above

Measured: binding

B1: Pseudomonas aeruginosa (Pa) flagellin purified from Pa strain PA01, Alexa Fluor 594-labeled (ligand)
chain: MALTVNTNIASLNTQRNLNASSNDLNTSLQRLTTGYRINSAKDDAAGLQISNRLSNQISGLNVATRNANDGISLAQTAEGALQQSTNILQRIRDLALQSANGSNSDADRAALQKEVAAQQAELTRISDTTTFGGRKLLDGSFGTTSFQVGSNAYETIDISLQNASASAIGSYQVGSNGAGTVASVAGTATASGIASGTVNLVGGGQVKNIAIAAGDSAKAIAEKMDGAIPNLSARARTVFTADVSGVTGGSLNFDVTVGSNTVSLAGVTSTQDLADQLNSNSSKLGITASINDKGVLTITSATGENVKFGAQTGTATAGQVAVKVQGSDGKFEAAAKNVVAAGTAATTTIVTGYVQLNSPTAYSVSGTGTQASQVFGNASAAQKSSVASVDISTADGAQNAIAVVDNALAAIDAQRADLGAVQNRFKNTIDNLTNISENATNARSRIKDTDFAAETAALSKNQVLQQAGTAILAQANQLPQAVLSLLR
modifications: Alexa Fluor 594 label (site not stated)
binds: all assays above
